Assay results: PubChem BioAssay AID2417 (National Center for Advancing Translational Sciences (NCATS), 2010)
Out of some 140,000 compounds screened, about 4,300 (3.1%) were called active. This list was built around the results that the source calls inconclusive (neither active nor inactive); the mix of calls is not that of the screen.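 How the source made its calls: active means readout at or below -70, meaning at least 70% loss of cells showing the perinucleolar compartment, a nuclear body marking cancer cells; inconclusive means readout between -30 and a set limit; inactive means the rest.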

assay: High Content Assay for Compounds that inhibit the Assembly of the Perinucleolar Compartment; conditions: PC3M PTB-GFP, PNC prevalence imaging, 16 h; at 10 µM; stronger effect = lower value;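 further: plate controls were DMSO wells for no effect and camptothecin positive control wells for full effect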
Outline: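 PC3M cells stably expressing PTB-GFP, 750–1000 cells/well, treated 16 h at 37 °C with compound (23 nl of library stock), in duplicate. After paraformaldehyde fixation and Hoechst stain, imaged at 20x; PNC prevalence scored by image analysis.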

SMILES | activity change (PNC), negative = inhibition
CCOC(=O)Cc1c(C)nc2cc(-c3ccc(Cl)cc3)[nH]n2c1=O | inconclusive: -72.9%
CON=C1CCN(c2ncc(C(F)(F)F)cc2Cl)CC1 | inconclusive: -53.7%
COc1cc2c(C)nc(C)c(C#N)c2cc1OC | inconclusive: -34%
COc1ccc(S(=O)(=O)N2CCOCC2)cc1C(=O)Nc1ccon1 | inconclusive: -66.3%
CC1(C)Cc2cccc(OCC(O)CN3CCN(c4ccccn4)CC3)c2O1 (configuration not stated) | inconclusive: -32.8%
Clc1cccc(-c2ccnc3nc(-n4cccc4)nn23)c1 | inconclusive: -50.4%
O=Cc1c[nH]c2ccc(S(=O)(=O)N3CCOCC3)cc12 | inactive: 2.36%
O=C(CN1C(=O)NC2(CCCCCCC2)C1=O)N1CCc2ccccc2C1 | inconclusive: -51.9%
COc1ccc(OC(C)C(=O)NCCc2nc3ccccc3[nH]2)cc1 (configuration not stated) | inconclusive: -55.2%
Cc1ccc(SCC(=O)NCCN2C(=O)CSC2=O)cc1C | inactive: -1.89%
COCCCn1nnnc1SCC(=O)N1CCCC1 | inconclusive: -33.5%
CCc1noc(C)c1C(=O)N1CCCC1 | inconclusive: -43.4%
COc1ccc(CN2CCC(C(=O)NCCc3ccc(OC)c(OC)c3)CC2)c(OC)c1 | inconclusive: -63.8%
O=C(CSc1nc2cc(Cl)ccc2o1)N1CCOCC1 | inconclusive: -52.2%
Cc1cccc2cc(C#N)c(SCc3nnc(-c4ccccc4[N+](=O)[O-])o3)nc12 | inconclusive: -38.1%
Cc1cc(C)cc(C(=O)N2CC(=O)Nc3ccccc32)c1 | active: -80%
Cc1c(C(=O)OCC(=O)c2c(N)n(CC(C)C)c(=O)n(C)c2=O)oc2ccccc12 | inconclusive: -30.3%
COC(=O)c1cc(C(=O)OC)cc(N2C(=O)CC(NNC(=O)c3ccccc3Cl)C2=O)c1 (configuration not stated) | active: -99.4%
O=C(Nc1ccc2c(c1)OCO2)N1CCN(C/C=C/c2ccccc2)CC1 | inconclusive: -41.9%
Cc1ccc(C)c(NS(=O)(=O)c2ccc(OCC(=O)NCc3ccco3)cc2)c1 | active: -89.9%
CC(NC(=O)C12CC3CC(CC(C3)C1)C2)C(=O)NCCN(C)C (configuration not stated) | inconclusive: -46.6%
COc1ccccc1S(=O)(=O)Cc1ccc(C(=O)NCCN2CCCCCC2)o1 | inactive: -27.4%
CC(C)C(=O)Nc1cccc(-c2cnc3ccccc3n2)c1 | active: -95.7%

SMILES | activity change (PNC), negative = inhibition
Cc1cccc(-n2ncc3c(NC(C)C)ncnc32)c1 | inactive: 31.1%
COc1cc(C(=O)N2CCN(C/C=C/c3ccccc3)CC2)cc(OC)c1OC | inconclusive: -51.2%
Cc1ccccc1NC(=O)c1cc(=O)c2ccccc2o1 | inconclusive: -65%
Cc1ccc(NC(=O)C2C3/C=C\CCCCC32)cc1 (configuration not stated) | active: -81.1%
COCCOC(=O)c1[nH]c2c(c1C)C(=O)CC(c1ccco1)C2 (configuration not stated) | active: -95%
CCc1cccc(CC)c1NC(=O)C1SC(=Nc2ccccc2C)C(c2nc3ccccc3s2)=C1N (configuration not stated) | inactive: 15.8%
O=C(O)CC(=O)Nc1ccccc1 | inactive: 0.934%
O=C1Cc2ccccc2C(=O)N1Cc1ccccc1 | inactive: 12.4%
CCOc1ccc(Br)cc1S(=O)(=O)Nc1cccc(S(=O)(=O)N(C)c2ccccc2)c1 | inactive: -28.8%
COC(=O)c1c(NC(=O)c2ccco2)sc2c1C(C(=O)OC)CC2 (configuration not stated) | inconclusive: -36.6%
Cc1ccc(Cl)cc1N1CCN(C(=O)CCC(=O)O)CC1 | inconclusive: -32.9%
O=C1CC(c2ccccc2)SC(N(c2ccccc2)c2ccccc2)=N1 (configuration not stated) | inconclusive: -38.4%
Cc1[nH]c2ccccc2c1C(=O)C(=O)NCCc1ccc(S(N)(=O)=O)cc1 | inconclusive: -39.1%
CC1COC(c2cccn2Cc2ccccc2Cl)=N1 (configuration not stated) | inconclusive: -75.5%
CCOc1ccc2nc(NC(=O)Nc3ccccc3)sc2c1 | inconclusive: -42.5%
COc1cc(OC)cc(C(=O)NCCNC(=O)c2ccccc2)c1 | inconclusive: -30.5%
COc1ccc(NC(=O)CN(c2ccccc2)S(=O)(=O)N(C)C)cc1OC | inconclusive: -39.2%
COc1ccc(OCCn2c(NC(=O)c3ccco3)nc3ccccc32)cc1 | inactive: 20.2%
CC1CC2(CCCCC2)Nc2c1ccc1ccccc21 (configuration not stated) | inconclusive: -37.9%
CCOC(=O)N1CCN(C(=O)CS(=O)(=O)c2cn(Cc3cccc(F)c3)c3ccccc23)CC1 | inactive: -8.7%
CC(C)[C@H](NC(=O)c1ccccc1)C(=O)OCC(=O)Nc1ccc2c(c1)OCCO2 | inconclusive: -46.2%
Cc1ccc(-c2cc(C(=O)N/N=C\c3cnn(C)c3C)c3ccccc3n2)cc1C | inconclusive: -62.6%
CCC(CC)c1nnc(NC(=O)[C@@H](NC(=O)c2cccc(C)c2)C(C)C)s1 | active: -97.3%

SMILES | activity change (PNC), negative = inhibition
c1ccc(OCCN2C3=NCCN3c3ccccc32)cc1 | active: -89.5%
COc1cccc2cc(C(=O)Nc3cccc(C)n3)c(=O)oc12 | inconclusive: -31.2%
Cc1c(N=C2NC(=O)/C(=C/c3cccc([N+](=O)[O-])c3)S2)c(=O)n(-c2ccccc2)n1C | inactive: 10.6%
Cc1ccc(-n2c(SCC(=O)NCC3CCCO3)nc3c(c2=O)SCC3)cc1 (configuration not stated) | inactive: -6.79%
Cc1noc(C)c1CSc1nc2sc(C)c(C)c2c(=O)n1-c1ccccc1 | inconclusive: -38%
CCC(=O)Nc1cc2nn(-c3ccc(OC)cc3)nc2cc1C | inconclusive: -53.5%
Nc1nnc(-c2cc3ccccc3oc2=O)s1 | inconclusive: -48.4%
C=CCNS(=O)(=O)CC12CCC(CC1=O)C2(C)C (configuration not stated) | inactive: -0.0654%
CCOC(=O)c1nn(-c2ccccc2F)c2nc(-c3ccco3)c(C#N)c(=O)n12 | inactive: 28.5%
Cc1cc2cc(CNC(=O)c3cccc([N+](=O)[O-])c3)ccc2[nH]1 | inactive: 9.42%
O=C(c1ccccc1)C1CCc2occc2C1=O (configuration not stated) | inconclusive: -45%
O=C(c1ccc(Br)o1)N(Cc1ccccc1)c1ccccn1 | inconclusive: -36%
CCCc1nc(SCC(=O)Nc2ccc(S(=O)(=O)N(C)C)cc2)c2ccccc2n1 | inconclusive: -40.8%
O=C(CSc1nnc(CNC(=O)c2cccs2)o1)NC1CCCC1 | active: -100%
Cc1nn(C)c(C(=O)N2CCc3ccccc32)c1Br | inconclusive: -36.5%
Fc1ccccc1CSc1ncn[nH]1 | active: -100%
CCCC(=O)NCCc1nc2ccccc2n1CC(=O)c1ccccc1 | inconclusive: -37.4%
CCOC(=O)c1c(C)oc2ccc(OCC(=O)C(C)(C)C)cc12 | inconclusive: -32.7%
Cc1ccc(N(C(C)C(=O)Nc2ccc3c(c2)OCO3)S(C)(=O)=O)cc1 (configuration not stated) | inconclusive: -53.5%
O=C(CSCCO)Nc1ccc(C2CCCCC2)cc1 | active: -127%
CC(C)c1ccc(NC(=O)C(=O)c2cn(CC(=O)N3CCCCC3)c3ccccc23)cc1 | inconclusive: -48.7%
CCN(CC)C(=O)CSc1nc2ccc(NC(=O)CSc3nccn3C)cc2s1 | inconclusive: -57.1%
Cc1ccc(-n2c(O)c(C=NC3CCS(=O)(=O)C3)c3ccccc3c2=O)cc1C (configuration not stated) | inactive: -15.7%

SMILES | activity change (PNC), negative = inhibition
O=C(c1cc2ccccc2c(=O)o1)N1CCCc2ccccc21 | inactive: -28.7%
O=C(O)c1cccc(S(=O)(=O)N2CCSCC2)c1 | inconclusive: -38.5%
CC/C(=N/NC(=O)CCC(=O)Nc1ccccc1OC)c1ccccc1 | inconclusive: -47.6%
Cc1ccc(OCC(=O)NC2CCCC2)c(C)c1 | inconclusive: -48.5%
Cc1cc(C)c2c(n1)sc1c(-c3ccccc3)c(C#N)c(N)nc12 | inconclusive: -74.4%
O=C(C1CCCN(Cc2cccnc2)C1)N1CCCCC1 (configuration not stated) | active: -81.9%
COC(=O)c1c(C(=O)OC)c(C)n(Cc2ccco2)c1C | inconclusive: -56.7%
CCOC(O)[C@H]1N[C@@H](c2ccc(Cl)cc2)[C@@H]([N+](=O)[O-])[C@@H]1c1ccccc1 (some centres not stated) | inconclusive: -41.2%
COc1cccc(C(CC(=O)NCC2CCCO2)NS(=O)(=O)c2ccc(C)cc2)c1OC (configuration not stated) | inconclusive: -69%
Cc1cc(S(=O)(=O)NCCN2CCOCC2)c(C)s1 | inconclusive: -56.4%
COc1ccc(C)cc1NS(=O)(=O)c1ccc(Br)s1 | inconclusive: -44.2%
O=C(COc1ccc(-c2nnc(N3CCCCC3)c3ccccc23)cc1)N1CCCCC1 | inconclusive: -35%
Cc1cc2c(cc1C)N(C(=O)CSc1nncn1C)C(C)(C)c1ssc(=S)c1-2 | inconclusive: -59.2%
COc1ccc(CC(=O)Nc2cccc(C(=O)Nc3ccccc3C(=O)O)c2)cc1OC | inconclusive: -60.1%
CCOC(=O)CSc1nc2nc(C)cc(C)n2n1 | inactive: 28.4%
Cc1ccccc1SCC(=O)NC1CCOC1=O (configuration not stated) | inactive: -5.82%
COc1ccc2cc(-c3cc(C(=O)O)c4ccccc4n3)ccc2c1 | inactive: 6.84%
COc1cccc(NS(=O)(=O)c2cc(C)ccc2OC)c1 | inconclusive: -34.2%
CC(C)CNC(=O)c1c(N)n(/N=C/c2cccnc2)c2nc3ccccc3nc12 | inactive: 44%
Cc1cc(C)c(C#N)c(SCS(=O)Cc2ccccc2)n1 (configuration not stated) | inactive: 47.8%
O=C(CSc1nnc(-c2ccco2)n1-c1ccccc1)N1CCN(C(=O)c2ccco2)CC1 | inactive: -20.4%
O=C(CCS(=O)(=O)c1ccc(Cl)cc1)NCCN1C(=O)S/C(=C\c2ccccc2F)C1=O | inconclusive: -38.7%
COc1ccc(-n2ncc3c(=O)n(CC(=O)Nc4ccc(S(=O)(=O)N5CCOCC5)cc4)cnc32)cc1 | inconclusive: -54.4%

Of the compounds above, four have bromine.
SMILES | activity change (PNC), negative = inhibition
CCOc1ccc(Br)cc1S(=O)(=O)Nc1cccc(S(=O)(=O)N(C)c2ccccc2)c1 | inactive: -28.8%
O=C(c1ccc(Br)o1)N(Cc1ccccc1)c1ccccn1 | inconclusive: -36%
Cc1nn(C)c(C(=O)N2CCc3ccccc32)c1Br | inconclusive: -36.5%
COc1ccc(C)cc1NS(=O)(=O)c1ccc(Br)s1 | inconclusive: -44.2%
